The target in assay [1] is T1, HYL1, full-length, recombinant (MBP-HYL1 and GST-HYL1) (Arabidopsis thaliana), O04492.
T1 chain: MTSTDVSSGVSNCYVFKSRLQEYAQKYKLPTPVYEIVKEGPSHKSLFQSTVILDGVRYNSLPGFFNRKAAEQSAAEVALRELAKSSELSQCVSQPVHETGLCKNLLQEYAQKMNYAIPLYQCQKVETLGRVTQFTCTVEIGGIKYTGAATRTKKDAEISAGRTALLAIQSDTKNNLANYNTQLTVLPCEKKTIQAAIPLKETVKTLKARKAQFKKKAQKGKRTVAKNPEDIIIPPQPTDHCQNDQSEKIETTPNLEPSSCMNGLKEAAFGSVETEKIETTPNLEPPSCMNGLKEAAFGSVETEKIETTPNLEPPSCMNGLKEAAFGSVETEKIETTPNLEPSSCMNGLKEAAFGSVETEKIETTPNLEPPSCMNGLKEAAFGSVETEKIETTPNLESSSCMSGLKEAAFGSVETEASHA
In words: pull-down; recombinant HYL1 or mutant from E. coli with DCL1 or SE tagged with 3×Flag purified from HEK293; western analysis; bait not stated; both purified. The settings on record: remark: other sources report otherwise.

For assay [2], the target named is T2, HYL1, endogenous in wild-type plants (Arabidopsis thaliana (endogenous in wild-type plants)), O04492.
T2 chain: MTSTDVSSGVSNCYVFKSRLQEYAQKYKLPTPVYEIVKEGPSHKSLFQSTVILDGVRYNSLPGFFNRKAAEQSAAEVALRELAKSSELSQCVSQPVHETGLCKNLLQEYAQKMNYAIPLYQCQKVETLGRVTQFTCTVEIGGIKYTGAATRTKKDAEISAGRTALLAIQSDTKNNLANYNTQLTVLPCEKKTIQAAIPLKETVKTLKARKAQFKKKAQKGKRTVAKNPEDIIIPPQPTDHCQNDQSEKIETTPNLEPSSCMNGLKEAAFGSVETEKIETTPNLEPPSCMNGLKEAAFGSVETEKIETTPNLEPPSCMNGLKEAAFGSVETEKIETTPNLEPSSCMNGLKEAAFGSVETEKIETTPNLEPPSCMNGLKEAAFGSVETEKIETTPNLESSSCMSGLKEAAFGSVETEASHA
In words: western blot of plant extract under native condition; total protein extract of plants in buffer without addition of SDS and urea, detected with HYL1 antibody. The settings on record: remark: other sources report otherwise.

Assay [3] deals with T1, HYL1, full-length, recombinant …. In words: pull-down; MBP-tagged protein on amylose resin, incubated with GST-tagged protein overnight at 4°C in 25 mM Tris pH 7.4, 1 mM EDTA, 0.01% NP-40, 2 M NaCl; 10 washes; immunoblot with GST antibody; both purified. The settings on record: remark: other sources report otherwise.
The target of assay [4] is HYL1^I158E in hyl1-2;I158E transgenic plants (Arabidopsis thaliana) (UniProt O04492). The assay can be described thus: western blot of plant extract under native condition; total protein extract of plants in buffer without addition of SDS and urea, detected with HYL1 antibody.

Results are given in words; binding and its absence hold for the method and conditions named. Some entries that bind do so weakly or less than the wild type. For some of these results: Where a sequence is shown, tags or fusion partners need not be part of it.

B1: SE tagged with 3×Flag, recombinant, Q9ZVD0 1-720 (protein)
chain: MADVNLPPSDSVDNRLPEKSTSSSPPPPPPSSSLPQQEQEQDQQQLPLRRERDSRERRDERDIERPPPNRRERDRSPLPPPRRDYKRRPSLSPPPPYRDRRHSPPQRRSPPQKRYRRDDNGYDGRRGSPRGGYGPPDRRFGYDHGGGYDREMGGRPGYGDERPHGRFMGRYQDWEGGRGGYGDASNSGNPQRDGLMSYKQFIQELEDDILPSEAERRYQEYKSEYITTQKRAFFNTHKEEDWLKNKYHPTNLLSVIERRNDLAQKVAKDFLLDLQSGTLDLGPAVTALNKSGRTSEPNSEDEAAGVGKRKRHGMGGAKENELLSAAPKAPSFTSDPKRILTDVEQTQALVRKLDSEKKIEENVLQGSETEKSGREKLHSGSTGPVVIIRGLTSVKGLEGVELLDTLVTYLWRVHGLDYYGKVETNEAKGLRHVRAEGKVSDAKGDENESKFDSHWQERLKGQDPLEVMAAKEKIDAAATEALDPHVRKIRDEKYGWKYGCGAKGCTKLFHAAEFVYKHLKLKHTELVTELTTKVREELYFQNYMNDPNAPGGQPATQQSGPRDRPIRRKPSMENRLRDDRGGRRERDGRANGNDRNDRSEDQQRGDNDGGNPGEVGYDAFGGQGGVHVPPFLSDINPPPMLMPVPGAGPLGPFVPAPPEVAMQMFRDPSGPNPPFEGSGRGGPAPFLLSPAFRQDPRRLRSYQDLDAPEEEVTVIDYRSL
As to B1, in assay [1], the binding result was “binds”.

B2: HYL1, endogenous in wild-type plants, O04492 1-419 (protein)
chain: MTSTDVSSGVSNCYVFKSRLQEYAQKYKLPTPVYEIVKEGPSHKSLFQSTVILDGVRYNSLPGFFNRKAAEQSAAEVALRELAKSSELSQCVSQPVHETGLCKNLLQEYAQKMNYAIPLYQCQKVETLGRVTQFTCTVEIGGIKYTGAATRTKKDAEISAGRTALLAIQSDTKNNLANYNTQLTVLPCEKKTIQAAIPLKETVKTLKARKAQFKKKAQKGKRTVAKNPEDIIIPPQPTDHCQNDQSEKIETTPNLEPSSCMNGLKEAAFGSVETEKIETTPNLEPPSCMNGLKEAAFGSVETEKIETTPNLEPPSCMNGLKEAAFGSVETEKIETTPNLEPSSCMNGLKEAAFGSVETEKIETTPNLEPPSCMNGLKEAAFGSVETEKIETTPNLESSSCMSGLKEAAFGSVETEASHA
Consider B2, for which, in assay [2], the binding result is given as “binds”.

B3: HYL1, full-length, recombinant (MBP-HYL1 and GST-HYL1), O04492 1-419 (protein)
chain: MTSTDVSSGVSNCYVFKSRLQEYAQKYKLPTPVYEIVKEGPSHKSLFQSTVILDGVRYNSLPGFFNRKAAEQSAAEVALRELAKSSELSQCVSQPVHETGLCKNLLQEYAQKMNYAIPLYQCQKVETLGRVTQFTCTVEIGGIKYTGAATRTKKDAEISAGRTALLAIQSDTKNNLANYNTQLTVLPCEKKTIQAAIPLKETVKTLKARKAQFKKKAQKGKRTVAKNPEDIIIPPQPTDHCQNDQSEKIETTPNLEPSSCMNGLKEAAFGSVETEKIETTPNLEPPSCMNGLKEAAFGSVETEKIETTPNLEPPSCMNGLKEAAFGSVETEKIETTPNLEPSSCMNGLKEAAFGSVETEKIETTPNLEPPSCMNGLKEAAFGSVETEKIETTPNLESSSCMSGLKEAAFGSVETEASHA
In the case of B3, the binding entry in assay [3] is listed as “binds”.

B4: HYL1^I158E in hyl1-2;I158E transgenic plants (protein, UniProt O04492 1-419)
chain: MTSTDVSSGVSNCYVFKSRLQEYAQKYKLPTPVYEIVKEGPSHKSLFQSTVILDGVRYNSLPGFFNRKAAEQSAAEVALRELAKSSELSQCVSQPVHETGLCKNLLQEYAQKMNYAIPLYQCQKVETLGRVTQFTCTVEIGGIKYTGAATRTKKDAEESAGRTALLAIQSDTKNNLANYNTQLTVLPCEKKTIQAAIPLKETVKTLKARKAQFKKKAQKGKRTVAKNPEDIIIPPQPTDHCQNDQSEKIETTPNLEPSSCMNGLKEAAFGSVETEKIETTPNLEPPSCMNGLKEAAFGSVETEKIETTPNLEPPSCMNGLKEAAFGSVETEKIETTPNLEPSSCMNGLKEAAFGSVETEKIETTPNLEPPSCMNGLKEAAFGSVETEKIETTPNLESSSCMSGLKEAAFGSVETEASHA
For B4, the binding result in assay [4] is recorded as “binds”.

These data come from paper PMC4231765.
